This continues a long series; more values of the same kind are listed elsewhere.
Assay: DVS water sorption isotherm, 25° C. scanned over 0 to 95% relative humidity (hygroscopicity)
Assay type: physicochemical
Details: FIG. 2E
Excerpt: In various embodiments, the hygroscopicity of crystal forms of racemic amisulpride, enantiomeric amisulpride, and enantiomeric amisulpride solvates are characterized by dynamic vapor sorption (DVS). DVS is a gravimetric technique that measures how much of a solvent is absorbed by a sample by varying the vapor concentration surrounding the sample (e.g., relative humidity) and measuring the change in mass. In the present application, DVS is used to generate water sorption isotherms, which represent the equilibrium amount of vapor sorbed as a function of steady state relative vapor pressure at a constant temperature.

## CCN1CCC[C@@H]1CNC(=O)c1cc(S(=O)(=O)CC)c(N)cc1OC [(R)-amisulpride Form A, R-4-Amino-N-[(1-ethyl-2-pyrrolidinyl)methyl]-5-(ethylsulfonyl)-2-methoxybenzamide]
RH 1.32 %, elapse time 170.4 min
  Change Mass: 0.000 wt %
RH 4.91 %, elapse time 352.8 min
  Change Mass: −0.005 wt %
RH 5.05 %, elapse time 1033.3 min
  Change Mass: 0.006 wt %
RH 5.10 %, elapse time 694.6 min
  Change Mass: −0.004 wt %
RH 9.91 %, elapse time 702.6 min
  Change Mass: −0.001 wt %
RH 10.10 %, elapse time 363.3 min
  Change Mass: −0.001 wt %
RH 10.10 %, elapse time 1025.3 min
  Change Mass: 0.011 wt %
RH 10.17 %, elapse time 686.6 min
  Change Mass: 0.002 wt %
RH 14.90 %, elapse time 710.6 min
  Change Mass: 0.005 wt %
RH 15.11 %, elapse time 678.6 min
  Change Mass: 0.007 wt %
RH 15.12 %, elapse time 1017.3 min
  Change Mass: 0.016 wt %
RH 15.14 %, elapse time 375.8 min
  Change Mass: 0.006 wt %
RH 19.91 %, elapse time 718.6 min
  Change Mass: 0.012 wt %
RH 20.09 %, elapse time 1009.3 min
  Change Mass: 0.021 wt %
RH 20.10 %, elapse time 670.6 min
  Change Mass: 0.014 wt %
RH 24.87 %, elapse time 727.6 min
  Change Mass: 0.017 wt %
RH 24.91 %, elapse time 662.6 min
  Change Mass: 0.020 wt %
RH 24.91 %, elapse time 1001.3 min
  Change Mass: 0.027 wt %
RH 29.85 %, elapse time 736.6 min
  Change Mass: 0.024 wt %
RH 30.14 %, elapse time 655.0 min
  Change Mass: 0.026 wt %
RH 30.14 %, elapse time 993.8 min
  Change Mass: 0.032 wt %
RH 34.86 %, elapse time 745.6 min
  Change Mass: 0.029 wt %
RH 34.91 %, elapse time 646.5 min
  Change Mass: 0.033 wt %
RH 34.96 %, elapse time 985.3 min
  Change Mass: 0.038 wt %
RH 39.84 %, elapse time 975.3 min
  Change Mass: 0.043 wt %
RH 39.88 %, elapse time 636.5 min
  Change Mass: 0.038 wt %
RH 39.96 %, elapse time 756.6 min
  Change Mass: 0.036 wt %
RH 44.93 %, elapse time 767.6 min
  Change Mass: 0.043 wt %
RH 45.04 %, elapse time 965.8 min
  Change Mass: 0.049 wt %
RH 49.83 %, elapse time 776.6 min
  Change Mass: 0.049 wt %
RH 50.05 %, elapse time 954.7 min
  Change Mass: 0.055 wt %
RH 54.99 %, elapse time 787.6 min
  Change Mass: 0.057 wt %
RH 55.04 %, elapse time 945.7 min
  Change Mass: 0.062 wt %
RH 59.98 %, elapse time 798.7 min
  Change Mass: 0.064 wt %
RH 60.15 %, elapse time 934.7 min
  Change Mass: 0.069 wt %
RH 64.95 %, elapse time 807.7 min
  Change Mass: 0.072 wt %
RH 65.08 %, elapse time 923.7 min
  Change Mass: 0.078 wt %
RH 69.88 %, elapse time 818.7 min
  Change Mass: 0.079 wt %
RH 70.14 %, elapse time 912.7 min
  Change Mass: 0.087 wt %
RH 74.62 %, elapse time 827.7 min
  Change Mass: 0.086 wt %
RH 75.08 %, elapse time 901.7 min
  Change Mass: 0.098 wt %
RH 79.72 %, elapse time 836.7 min
  Change Mass: 0.097 wt %
RH 80.48 %, elapse time 892.7 min
  Change Mass: 0.109 wt %
RH 84.65 %, elapse time 845.7 min
  Change Mass: 0.113 wt %
RH 85.33 %, elapse time 883.7 min
  Change Mass: 0.131 wt %
RH 89.55 %, elapse time 854.7 min
  Change Mass: 0.131 wt %
RH 90.11 %, elapse time 874.7 min
  Change Mass: 0.143 wt %
RH 94.65 %, elapse time 865.7 min
  Change Mass: 0.156 wt %
